# Experimental data as given in patent US20240277781A1, “Compositions Comprising Microbes and Methods of Use and Making Thereof” (Pendulum Therapeutics, Inc., priority 2021, published 2024).
# Test system: formulation strains (AMUC, BINF, CBEI, CBUT, EHAL)
# Format: cell-based
compound,measurement,value
Cc1cnc(C(=O)NCCc2ccc(S(=O)(=O)NC(=O)NC3CCCCC3)cc2)cn1 [glipizide],"growth inhibition of formulation strains (yield decrease, lag increase)",substantially muted inhibitory effect
